For test [1], the target named is T1, protein with Protein ID peg.804 (β subunit of the monooxygenase from Rhodococcus wratislaviensis C31-06) (Rhodococcus wratislaviensis).
T1 sequence: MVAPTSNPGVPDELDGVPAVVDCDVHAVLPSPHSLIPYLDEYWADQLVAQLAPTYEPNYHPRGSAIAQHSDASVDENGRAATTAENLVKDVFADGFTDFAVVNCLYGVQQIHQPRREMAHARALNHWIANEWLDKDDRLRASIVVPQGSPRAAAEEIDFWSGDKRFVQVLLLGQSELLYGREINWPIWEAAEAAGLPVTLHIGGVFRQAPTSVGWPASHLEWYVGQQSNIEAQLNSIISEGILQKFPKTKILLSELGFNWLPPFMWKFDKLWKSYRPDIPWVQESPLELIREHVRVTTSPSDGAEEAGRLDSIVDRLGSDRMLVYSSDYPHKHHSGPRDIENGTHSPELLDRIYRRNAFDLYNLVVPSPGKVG
Put plainly: conclusion from the gel filtration and SDS-PAGE of the co-purified proteins in Example 7. On the technique in general: Size exclusion chromatography separates by hydrodynamic size, large species first.

Test [2] shares this target. Kind of test: co-purification on HisTALON Superflow, then gel filtration (Superdex 200 Increase; approximately 180,000 against assumed subunit weights of 42,000 and 43,000) and SDS-PAGE.

No constants are given. Whether binding was seen depends on the method and setting. Binding seen in cells or lysates may run through a third protein. Some entries that bind do so weakly or less than the wild type.

Results on one molecule are retold here after US20200010814A1, “NOVEL MONOOXYGENASE AND UTILIZATION THEREOF” (KANEKA CORPORATION, priority 2017, published 2020).

B1: protein with Protein ID peg.803 (α subunit of the monooxygenase from Rhodococcus wratislaviensis C31-06) (enzyme)
chain: MTIIEHGSLGTLPAPSVTTGIVDADIHPVPQDGALEPYLDDRWKKHIREYGVRTTTGLQFISEYPQMYGGAMRADAWPESGYPGSDRELLRTQLLDKHNIQLGVLQCLAPGGQTLNPAGQALNQELAAALCRATNDWQLEHLVYPDPRMRAAIPVTFETPDYAVAEIERVGADPGVVAVLGTSKTLEPLGSRKYWPIYEASVAQNLPIQFHLSQGGGHANTGTGWTSYHTEYHTGHVQSFQSQLLSLVLSGTFDRFPTLKVMFVEGNVAHFAPLIQRMDYTWETLRGELPDLQRKPSEYIRDHIWASTQPIDEPEKPEHLAELLEEFCGDNVVFATDYPHFDFDDPETAFPRSFPVDLRDKILRGNGMRFFGVTNQAD
With B1, the binding entry in test [1] and in test [2] was “binds” each time.
